Chains of the proteins cited; added tags and fusions are not shown. Residues count along the entry.
UniProt A0A024B7W1, 2786-3423: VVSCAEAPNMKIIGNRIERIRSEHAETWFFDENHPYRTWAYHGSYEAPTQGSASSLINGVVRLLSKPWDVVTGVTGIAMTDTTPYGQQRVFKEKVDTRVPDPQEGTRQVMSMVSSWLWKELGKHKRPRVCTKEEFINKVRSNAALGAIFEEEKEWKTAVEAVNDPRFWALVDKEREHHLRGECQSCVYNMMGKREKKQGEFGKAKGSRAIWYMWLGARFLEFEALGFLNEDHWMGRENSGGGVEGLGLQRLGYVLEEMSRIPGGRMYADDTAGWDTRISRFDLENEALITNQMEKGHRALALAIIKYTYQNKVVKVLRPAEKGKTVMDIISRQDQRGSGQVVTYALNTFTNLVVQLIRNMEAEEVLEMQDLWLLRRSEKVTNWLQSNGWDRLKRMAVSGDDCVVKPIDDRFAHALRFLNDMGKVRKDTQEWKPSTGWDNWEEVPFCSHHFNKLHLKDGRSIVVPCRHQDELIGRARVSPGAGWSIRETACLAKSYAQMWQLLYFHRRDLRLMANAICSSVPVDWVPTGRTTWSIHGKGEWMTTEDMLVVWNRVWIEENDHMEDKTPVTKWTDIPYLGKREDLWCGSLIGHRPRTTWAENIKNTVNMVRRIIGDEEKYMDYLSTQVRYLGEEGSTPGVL

According to paper PMC9915956, “Identification of Potent Zika Virus NS5 RNA-Dependent RNA Polymerase Inhibitors Combining Virtual Screening and Biological Assays” (International Journal of Molecular Sciences, 2023):

Biological target: ZIKV NS5 RdRp (Zika virus, UniProt A0A024B7W1)
Experiment: Fluorescence-based alkaline phosphatase-coupled polymerase assay, RdRp enzymatic inhibition
Assay type: biochemical
Settings: compounds incubated with RdRp for 30 min; WT-RdRp; read-out: IC50 to inhibit RdRp activity
Procedure: The activity of RdRp was measured by a fluorescence-based alkaline phosphatase-coupled polymerase assay established previously in our lab. Briefly, RdRp catalyzed the transfer of adenosine 5′-monophosphate from γ-(BBT)-ATP to the RNA chain, generating the byproduct BBTppi. Subsequently, BBTppi was hydrolyzed by alkaline phosphatase to fluorescent BBT (ex/em 430/560 nm).
The plasmid pET30a-RdRp, constructed in our laboratory, was transformed into E. coli Transetta (DE3) for RdRp expression and purified. The bacteria were grown in ZYM-5052 culture medium. RdRp with the His tag was loaded on a Ni^2+ HisTrap chelating column and then eluted in a buffer containing imidazole in the ÄKTA system. The purified proteins were verified by SDS-PAGE and Western blotting. RdRp activity was analyzed using a fluorescence-based alkaline phosphatase-coupled polymerase assay. The inhibitory effect of the compounds against RdRp was evaluated using the protocol developed in our laboratory.

IC50: 15.5 µM
SMILES: Clc1ccc(CS[C@@H](Cn2ccnc2)c2ccc(Cl)cc2Cl)cc1 [SUL, Sulconazole (nitrate)]
